Patent US12433510B2, “Methods and systems for improved collection of interstitial fluid” (Georgia Tech Research Corporation, priority 2017, dated 2025)
Read-outs that look alike come from different tables or passages of the source.

Protein sequences, listed by entry. Tags and fused reporters are not part of them. Lines headed by an entry give the natural chain unless they say otherwise; changes in a name come on top.
UniProt P01019: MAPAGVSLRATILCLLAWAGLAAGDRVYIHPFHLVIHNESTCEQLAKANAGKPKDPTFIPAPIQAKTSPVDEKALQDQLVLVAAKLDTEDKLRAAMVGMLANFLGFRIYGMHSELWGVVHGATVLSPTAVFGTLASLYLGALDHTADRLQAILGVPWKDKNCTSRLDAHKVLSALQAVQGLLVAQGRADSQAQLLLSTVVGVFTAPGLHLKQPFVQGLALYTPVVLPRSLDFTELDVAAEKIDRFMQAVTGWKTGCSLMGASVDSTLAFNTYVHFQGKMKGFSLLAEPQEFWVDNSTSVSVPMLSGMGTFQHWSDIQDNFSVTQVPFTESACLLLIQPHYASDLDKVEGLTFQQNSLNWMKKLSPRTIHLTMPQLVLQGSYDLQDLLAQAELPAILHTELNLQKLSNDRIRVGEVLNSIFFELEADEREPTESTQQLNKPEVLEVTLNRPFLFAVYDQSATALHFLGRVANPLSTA

Experiment: High-resolution metabolomics (LC-MS): prevalence of biomarkers in plasma, ISF and suction blister fluid
[1] = biomarkers uniquely or predominately in ISF, 20 matched samples, ISF
[2] = biomarkers uniquely or predominately in ISF, 20 matched samples, SBF
[3] = biomarkers uniquely or predominately in ISF, 20 matched samples, plasma
[4] = metabolites unique to SBF, 20 samples, ISF
[5] = metabolites unique to SBF, 20 samples, SBF
[6] = metabolites unique to SBF, 20 samples, plasma
[7] = selected clinically relevant biomarkers, 20 matched samples, ISF
[8] = selected clinically relevant biomarkers, 20 matched samples, SBF
[9] = selected clinically relevant biomarkers, 20 matched samples, plasma
[10] = prevalence among 20 samples, plasma from venipuncture
[11] = prevalence among 20 samples, suction blister fluid

NC(=NCCC[C@H](N)C(=O)O)N[C@@H](CC(=O)O)C(=O)O [Arginosuccinic acid]
Prevalence of biomarker, ISF [1]: 95%
Prevalence of biomarker, SBF [2]: 25%
Prevalence of biomarker, Plasma [3]: 0%

O=C(O)/C=C/c1c[nH]cn1 [Urocanic acid]
Prevalence of biomarker, ISF: 100%
Prevalence of biomarker, Plasma: 0%
Prevalence of biomarker, SBF: 100%

CCCCCCCC/C=C\CCCCCCCC(=O)OCC(O)CO (racemic) [1-Oleoyl-rac-glycerol]
Prevalence of biomarker, ISF: 0%
Prevalence of biomarker, Plasma: 5%
Prevalence of biomarker, SBF: 90%

C[C@]12CCC(=O)C=C1CC[C@@H]1[C@@H]2CC[C@@]2(C)[C@H]1CC[C@]2(O)C(=O)CO [11-Deoxycortisol]
Prevalence of biomarker, ISF [4]: 0%
Prevalence of biomarker, SBF [5]: 100%
Prevalence of biomarker, Plasma [6]: 0%

O=c1[nH]c(=O)c2[nH]c(=O)[nH]c2[nH]1 [Uric acid]
Prevalence of biomarker, ISF [7]: 100%
Prevalence of biomarker, SBF [8]: 100%
Prevalence of biomarker, Plasma [9]: 100%

Nc1nc2c(c(=O)[nH]1)NC(CNc1ccc(C(=O)N[C@@H](CCC(=O)O)C(=O)O)cc1)CN2 (stereo partly shown) [Tetrahydrofolic acid]
Prevalence of biomarker, ISF [7]: 60%
Prevalence of biomarker, SBF [8]: 30%
Prevalence of biomarker, Plasma [9]: 40%

Cc1cc2nc3[nH]c(=O)[nH]c(=O)c3nc2cc1C [Lumichrome]
Prevalence of biomarker, Plasma [10]: 5%
Prevalence of biomarker, SBF [11]: 10%

N[C@@H](CCS)C(=O)O [Homocysteine]
Prevalence of biomarker, ISF [7]: 55%
Prevalence of biomarker, SBF [8]: 55%
Prevalence of biomarker, Plasma [9]: 20%

O=C1c2c(O)cccc2C([C@@H]2O[C@H](CO)[C@@H](O)[C@H](O)[C@H]2O)c2cc(CO)cc(O)c21 (stereo partly shown) [Barbaloin]
Prevalence of biomarker, ISF [1]: 70%
Prevalence of biomarker, SBF [2]: 10%
Prevalence of biomarker, Plasma [3]: 0%

C[C@H](O)[C@H](O)[C@@H](O)[C@@H](O)C=O [Rhamnose]
Prevalence of biomarker, Plasma [10]: 10%
Prevalence of biomarker, SBF [11]: 25%

OC[C@H]1O[C@@H](n2cnc3cncnc32)[C@H](O)[C@@H]1O [Nebularine]
Prevalence of biomarker, ISF: 100%
Prevalence of biomarker, Plasma: 0%
Prevalence of biomarker, SBF: 20%

O=C(O)C(Cl)Br (stereo not shown) [Bromochloroacetic acid]
Prevalence of biomarker, ISF: 65%
Prevalence of biomarker, Plasma: 5%
Prevalence of biomarker, SBF: 10%

Angiotensin (5-8) (IHPF; Angiotensin-1; UniProt P01019 29-32, looked up, fragment)
Prevalence of biomarker, ISF [1]: 100%
Prevalence of biomarker, SBF [2]: 5%
Prevalence of biomarker, Plasma [3]: 5%

C[C@]12CC[C@@H]3c4ccc(O)cc4CC[C@H]3[C@@H]1CC[C@@H]2OC(=O)CCC1CCCC1 [Estradiol cypionate]
Prevalence of biomarker, ISF [1]: 100%
Prevalence of biomarker, SBF [2]: 0%
Prevalence of biomarker, Plasma [3]: 0%

CC(O)C(=O)O (stereo not shown) [Lactic acid]
Prevalence of biomarker, ISF [7]: 100%
Prevalence of biomarker, SBF [8]: 100%
Prevalence of biomarker, Plasma [9]: 75%

NCc1[nH]cc(CCC(=O)O)c1CC(=O)O [Porphobilinogen]
Prevalence of biomarker, ISF [1]: 95%
Prevalence of biomarker, SBF [2]: 20%
Prevalence of biomarker, Plasma [3]: 10%

CCCCC/C=C\C[C@@H](O)/C=C/C=C/C=C\[C@@H](O)CCCC(=O)O [Leukotriene B4]
Prevalence of biomarker, ISF [7]: 100%
Prevalence of biomarker, SBF [8]: 50%
Prevalence of biomarker, Plasma [9]: 50%

CC(C)CCC[C@@H](C)[C@H]1CC[C@H]2[C@@H]3CC=C4C[C@@H](O)CC[C@]4(C)[C@H]3CC[C@]12C [Cholesterol]
Prevalence of biomarker, ISF [7]: 80%
Prevalence of biomarker, SBF [8]: 100%
Prevalence of biomarker, Plasma [9]: 100%

C[C@]12C[C@H](O)[C@H]3[C@@H](CCC4=CC(=O)CC[C@@]43C)[C@@H]1CC[C@@H]2C(=O)CO [Corticosterone]
Prevalence of biomarker, ISF [4]: 0%
Prevalence of biomarker, SBF [5]: 100%
Prevalence of biomarker, Plasma [6]: 0%

CC[C@@H](O)/C=C/C=C\C/C=C\C/C=C\C=C\[C@@H](O)CCCC(=O)O [Respolvin E2]
Prevalence of biomarker, ISF [7]: 100%
Prevalence of biomarker, SBF [8]: 75%
Prevalence of biomarker, Plasma [9]: 100%

CCCCCCCCCCCCCCCCC(=O)O [Margaric acid]
Prevalence of biomarker, ISF [7]: 100%
Prevalence of biomarker, SBF [8]: 25%
Prevalence of biomarker, Plasma [9]: 60%

Nc1ccn([C@@H]2O[C@H](COP(=O)(O)O)[C@@H](O)[C@H]2O)c(=O)n1 [Cytidine monophosphate (CMP), Cytidine monophosphate]
Prevalence of biomarker, Plasma [10]: 10%

O=C(O)C(=O)O [Oxalic acid]
Prevalence of biomarker, Plasma [10]: 0%
Prevalence of biomarker, SBF [11]: 30%

CCCCCC/C=C\CCCCCCCC(=O)O [Palmitoleic acid]
Prevalence of biomarker, ISF [7]: 100%
Prevalence of biomarker, SBF [8]: 55%
Prevalence of biomarker, Plasma [9]: 90%
